According to PMC9646721, “Alkaloid binding to opium poppy major latex proteins triggers structural modification and functional aggregation” (Nature Communications, 2022):

Experiments:
[1] = tested on: PR10-12; test: Isothermal titration calorimetry; assay type: binding, Papaver somniferum; settings: ITC, PBS pH 7.4, 25 °C
Method: ITC experiments were conducted using a Microcal VP instrument (Malvern Pananalytical, Malvern, UK). Recombinant MLP/PR10 protein preparation involving production in Escherichia coli followed by cobalt-affinity chromatography was optimized to yield relatively high purity in a single step as determined by SDS-PAGE and colloidal Coomassie blue silver staining. The less than 48 h decrease in atmospheric oxygen exposure generated high-quality proteins with reduced precipitate. […] Eluates were twice dialysed to equilibrium (i.e., 10–12 h at 4 °C) against a 1000-fold (2–4 L) volume of PBS, pH 7.4 (25 mM sodium phosphate, 50 mM NaCl) or CBS, pH 5.5, resulting in a theoretical million-fold dilution of undesired small molecules (e.g., <0.2 µM imidazole). Dialysis was carried out in boiled Spectra/Por 1 6–8 kDa MWCO 0.32 ml/cm (Spectrum Labs, USA) tubing thoroughly washed with either buffer before use. The second 1000-fold volume of dialysis buffer was filtered and degassed using a reusable bottle-top filtration apparatus (Nalgene, USA) with disposable […] cellulose filters (VWR, Canada) prior to storage at 4 °C. Ligands were dissolved in the filtered dialysis buffer at 21 °C for approximately one hour, and any insoluble material was removed by repeated centrifugation at 21,000 × g for 10 min. No change in pH occurred following substrate addition. Prior to ITC, which was initiated immediately following dialysis, the protein solutions were centrifuged at 17,000 × g and 4 °C for 30 min. Any precipitate was separated from the remaining soluble protein fraction which was quantified by absorption at A280nm and diluted with filtered dialysis buffer immediately before use.
Thermograms were recorded at 25 °C, with a reference power of 10 (dpu/sec) and monitoring of 30 injections of 9 µl BIA ligand solutions into a sample cell containing 1.4 ml of an MLP/PR10 protein solution, with 300 seconds between injections. Protein concentrations varied from 10 to 150 µM to achieve an optimal C value and curve shape valid for parameter calculation. […] To ensure that we report only the heat of reaction for each interaction, independent titrations of ligand into buffer, and buffer into protein solutions, were used to calculate and then subtract heats of dilution. After subtraction, binding isotherms were analyzed in MicroCal Origin 7 (MicroCal, USA) by fitting a single-site binding model using non-linear least squares regression analysis repeated until convergence. […] Each ITC experiment was repeated 2 to 4 times.

[2] = tested on: MLP2; test: ANS displacement assay; assay type: binding, Papaver somniferum; settings: ANS displacement dose-response fit
Text: (§1) Eluates were store separately on ice.
(§2) Displacement of ANS is associated with reduced fluorescence.

[3] = tested on: PR10-4; test: ANS displacement assay; assay type: binding, Papaver somniferum; settings: ANS displacement dose-response fit
Text: as §1, §2

[4] = tested on: PR10-12; test: ANS displacement assay; assay type: binding, Papaver somniferum; settings: ANS displacement dose-response fit
Text: as §1, §2

[5] = Sucrose density-gradient fractionation of latex, relative abundance of BIAs in gradient fractions; design: species or system Papaver somniferum

In the case of `COC1=CC=C2[C@H]3Cc4ccc(OC)c5c4[C@@]2(CCN3C)[C@H]1O5` [Thebaine, thebaine], the ΔH [1] is reported as 22.38 ± 0.344 kJ/mol, the ΔS [1] is reported as 39.3 cal/mol/˚K and the N ([1]; single-site model) is reported as 0.54 ± 0.00587. For the same compound, the “Hill Slope” value [2] was -1.55 ± 0.61, the “Hill Slope” value [3] was -0.66 ± 0.26 and the “Hill Slope” value [4] was -1.67 ± 0.70. The “Alkaloid concentration in sucrose density-gradient fraction” value ([5]; Cultivar 40, fraction 1) was 1.704 mM, the “Alkaloid concentration in sucrose density-gradient fraction” value ([5]; Cultivar 40, fraction 2) was 1.146 mM and the “Alkaloid concentration in sucrose density-gradient fraction” value ([5]; Cultivar 40, fraction 3) was 0.414 mM. The “Alkaloid concentration in sucrose density-gradient fraction” value ([5]; Cultivar 40, fraction 4) was 0.200 mM, the “Alkaloid concentration in sucrose density-gradient fraction” value ([5]; Cultivar 40, fraction 5) was 0.137 mM and the “Alkaloid concentration in sucrose density-gradient fraction” value ([5]; Cultivar 40, fraction 6) was 0.089 mM. The “Alkaloid concentration in sucrose density-gradient fraction” value ([5]; Cultivar 40, fraction 7) was 0.069 mM, the “Alkaloid concentration in sucrose density-gradient fraction” value ([5]; Cultivar 40, fraction 8) was 0.056 mM and the “Alkaloid concentration in sucrose density-gradient fraction” value ([5]; Cultivar 40, fraction 9) was 0.065 mM. For the same compound, the “Alkaloid concentration in sucrose density-gradient fraction” value ([5]; Cultivar 40, fraction 10) was 0.079 mM, the “Alkaloid concentration in sucrose density-gradient fraction” value ([5]; Cultivar 40, fraction 11) was 0.084 mM and the “Alkaloid concentration in sucrose density-gradient fraction” value ([5]; Cultivar 40, fraction 12) was 0.081 mM. The “Alkaloid concentration in sucrose density-gradient fraction” value ([5]; Cultivar 40, fraction 13) was 0.138 mM, the “Alkaloid concentration in sucrose density-gradient fraction” value ([5]; Cultivar 40, fraction 14) was 0.153 mM and the “Alkaloid concentration in sucrose density-gradient fraction” value ([5]; Cultivar 40, fraction 15) was 0.147 mM. The “Alkaloid concentration in sucrose density-gradient fraction” value ([5]; Cultivar 40, fraction 16) was 0.128 mM, the “Alkaloid concentration in sucrose density-gradient fraction” value ([5]; Cultivar 40, fraction 17) was 0.096 mM and the “Alkaloid concentration in sucrose density-gradient fraction” value ([5]; Cultivar 40, fraction 18) was 0.067 mM. The “Alkaloid concentration in sucrose density-gradient fraction” value ([5]; Cultivar 40, fraction 19) was 0.054 mM, the “Alkaloid concentration in sucrose density-gradient fraction” value ([5]; Cultivar 40, fraction 20) was 0.106 mM and the “Alkaloid concentration in sucrose density-gradient fraction” value ([5]; Cultivar 40, fraction 21) was 0.076 mM. The “Alkaloid concentration in sucrose density-gradient fraction” value ([5]; Cultivar 40, fraction 22) was 0.056 mM, the “Alkaloid concentration in sucrose density-gradient fraction” value ([5]; Cultivar Roxanne, fraction 1) was 0.540 mM and the “Alkaloid concentration in sucrose density-gradient fraction” value ([5]; Cultivar Roxanne, fraction 2) was 0.244 mM. For the same compound, the “Alkaloid concentration in sucrose density-gradient fraction” value ([5]; Cultivar Roxanne, fraction 3) was 0.059 mM, the “Alkaloid concentration in sucrose density-gradient fraction” value ([5]; Cultivar Roxanne, fraction 4) was 0.023 mM and the “Alkaloid concentration in sucrose density-gradient fraction” value ([5]; Cultivar Roxanne, fraction 5) was 0.024 mM. The “Alkaloid concentration in sucrose density-gradient fraction” value ([5]; Cultivar Roxanne, fraction 6) was 0.017 mM, the “Alkaloid concentration in sucrose density-gradient fraction” value ([5]; Cultivar Roxanne, fraction 7) was 0.013 mM and the “Alkaloid concentration in sucrose density-gradient fraction” value ([5]; Cultivar Roxanne, fraction 8) was 0.012 mM. The “Alkaloid concentration in sucrose density-gradient fraction” value ([5]; Cultivar Roxanne, fraction 9) was 0.010 mM, the “Alkaloid concentration in sucrose density-gradient fraction” value ([5]; Cultivar Roxanne, fraction 10) was 0.010 mM and the “Alkaloid concentration in sucrose density-gradient fraction” value ([5]; Cultivar Roxanne, fraction 11) was 0.00455 mM. For the same compound, the “Alkaloid concentration in sucrose density-gradient fraction” value ([5]; Cultivar Roxanne, fraction 12) was 0.013 mM, the “Alkaloid concentration in sucrose density-gradient fraction” value ([5]; Cultivar Roxanne, fraction 13) was 0.013 mM and the “Alkaloid concentration in sucrose density-gradient fraction” value ([5]; Cultivar Roxanne, fraction 14) was 0.017 mM. The “Alkaloid concentration in sucrose density-gradient fraction” value ([5]; Cultivar Roxanne, fraction 15) was 0.025 mM, the “Alkaloid concentration in sucrose density-gradient fraction” value ([5]; Cultivar Roxanne, fraction 16) was 0.034 mM and the “Alkaloid concentration in sucrose density-gradient fraction” value ([5]; Cultivar Roxanne, fraction 17) was 0.031 mM. For the same compound, the “Alkaloid concentration in sucrose density-gradient fraction” value ([5]; Cultivar Roxanne, fraction 18) was 0.029 mM, the “Alkaloid concentration in sucrose density-gradient fraction” value ([5]; Cultivar Roxanne, fraction 19) was 0.025 mM and the “Alkaloid concentration in sucrose density-gradient fraction” value ([5]; Cultivar Roxanne, fraction 20) was 0.022 mM. The “Alkaloid concentration in sucrose density-gradient fraction” value ([5]; Cultivar Roxanne, fraction 21) was 0.013 mM, the “Alkaloid concentration in sucrose density-gradient fraction” value ([5]; Cultivar Roxanne, fraction 22) was 0.027 mM and the “Alkaloid concentration in sucrose density-gradient fraction” value ([5]; Cultivar T, fraction 1) was 3.249 mM. For the same compound, the “Alkaloid concentration in sucrose density-gradient fraction” value ([5]; Cultivar T, fraction 2) was 4.190 mM, the “Alkaloid concentration in sucrose density-gradient fraction” value ([5]; Cultivar T, fraction 3) was 1.719 mM and the “Alkaloid concentration in sucrose density-gradient fraction” value ([5]; Cultivar T, fraction 4) was 0.913 mM. The “Alkaloid concentration in sucrose density-gradient fraction” value ([5]; Cultivar T, fraction 5) was 0.601 mM, the “Alkaloid concentration in sucrose density-gradient fraction” value ([5]; Cultivar T, fraction 6) was 0.461 mM and the “Alkaloid concentration in sucrose density-gradient fraction” value ([5]; Cultivar T, fraction 7) was 0.366 mM. The “Alkaloid concentration in sucrose density-gradient fraction” value ([5]; Cultivar T, fraction 8) was 0.329 mM, the “Alkaloid concentration in sucrose density-gradient fraction” value ([5]; Cultivar T, fraction 9) was 0.312 mM and the “Alkaloid concentration in sucrose density-gradient fraction” value ([5]; Cultivar T, fraction 10) was 0.304 mM. The “Alkaloid concentration in sucrose density-gradient fraction” value ([5]; Cultivar T, fraction 11) was 0.389 mM, the “Alkaloid concentration in sucrose density-gradient fraction” value ([5]; Cultivar T, fraction 12) was 0.503 mM and the “Alkaloid concentration in sucrose density-gradient fraction” value ([5]; Cultivar T, fraction 13) was 0.437 mM. The “Alkaloid concentration in sucrose density-gradient fraction” value ([5]; Cultivar T, fraction 14) was 0.528 mM, the “Alkaloid concentration in sucrose density-gradient fraction” value ([5]; Cultivar T, fraction 15) was 0.518 mM and the “Alkaloid concentration in sucrose density-gradient fraction” value ([5]; Cultivar T, fraction 16) was 0.558 mM. For the same compound, the “Alkaloid concentration in sucrose density-gradient fraction” value ([5]; Cultivar T, fraction 17) was 0.702 mM, the “Alkaloid concentration in sucrose density-gradient fraction” value ([5]; Cultivar T, fraction 18) was 0.699 mM and the “Alkaloid concentration in sucrose density-gradient fraction” value ([5]; Cultivar T, fraction 19) was 0.723 mM. The “Alkaloid concentration in sucrose density-gradient fraction” value ([5]; Cultivar T, fraction 20) was 0.585 mM, the “Alkaloid concentration in sucrose density-gradient fraction” value ([5]; Cultivar T, fraction 21) was 0.601 mM and the “Alkaloid concentration in sucrose density-gradient fraction” value ([5]; Cultivar T, fraction 22) was 0.734 mM.
